Experimental data taken from PubChem BioAssay AID662 (National Center for Advancing Translational Sciences (NCATS), 2007).
“And” between values parts separate entries of the source, which are not always exact repeats. Identical values can stand only once. The list shows a part of the results. Further columns of the screen follow, without active or inactive calls. Most of these compounds were active or inconclusive in the main read-out, so they are no random draw. Words in brackets tell the shape of the fitted curve; partial curves, single points and poor fits give uncertain potencies.

Experiment: Cell signaling CRE-BLA (Fsk stim)
Conditions: CHO CRE-bla reporter (cAMP response element driving beta-lactamase), forskolin EC10, beta-lactamase ratio; measured here: 460 nm blue channel
Summary of the method: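 Modulation of forskolin signalling: compounds in titration series added with EC10 NKH 477 to CHO cells carrying a CRE-driven beta-lactamase reporter, 3 h, 37C. CCF4 FRET ratio (460/530 nm, ex 405 nm) gives %activity and AC50.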
With O=C1CCCC2=C1C(Cc1ccccc1)C1=C(CCCC1=O)O2 the AC50 was 31.6 µM [falling, single point].
In the case of CN(C)c1ccc(P(=O)(OCc2ccccc2)C(O)c2cccnc2)cc1 (stereo not drawn), the AC50 is reported as 25.1 µM [falling, single point].
With COc1cccc(-n2c(SCC(=O)Nc3cc(C)on3)nc3ccccc3c2=O)c1 the AC50 was 7.94 µM [rising, partial curve].
For CC(C)[C@H](NC(=O)Nc1cccc(C(F)(F)F)c1)C(=O)O, the AC50 was 12.6 µM [falling, partial curve, poor fit].
For Cc1ccccc1OCC(=O)NCCC(=O)O, the AC50 was 0.251 µM [rising, partial curve, poor fit].
For Cn1c(C(=O)NCCN2CCN(c3ccccc3F)CC2)cc2c(=O)n(C)c3ccccc3c21, the AC50 was 2 µM [rising, full curve].
With CCCCCCNc1c(C(=O)OCC)c(=O)[nH]c2ccccc12 the AC50 was 5.01 µM [rising, partial curve].
In the case of Cc1cccc(CNc2cc(-c3c(C)noc3C)ncn2)c1, the AC50 is reported as 7.94 µM [rising, partial curve].
In the case of O=C(CSc1ncnc2c1oc1ccccc12)N1CCCc2ccccc21, the AC50 is reported as 10 µM [rising, partial curve, poor fit].
In the case of Cn1cc(-c2nc3cnc(N4CCOCC4)nc3n(C3CC3)c2=O)c2ccccc21, the AC50 is reported as 15.8 µM [rising, partial curve].
In the case of CC1CCCC(NC2CCCCNC2=O)C1 (stereo not drawn), the AC50 is reported as 0.00316 µM [falling, full curve, poor fit].
With COc1ncc2nc(-c3ccc(F)cc3)c(=O)n(C[C@H]3CCCO3)c2n1 the AC50 was 12.6 µM [rising, partial curve].
With O=C(Cn1cnnn1)OCC(=O)c1ccc(Cl)s1 the AC50 was 0.251 µM [falling, partial curve].
In the case of Nc1nc2n(n1)C(c1ccco1)CC(c1ccc(Cl)c(Cl)c1)N2 (stereo not drawn), the AC50 is reported as 25.1 µM [falling, single point].
With CCCc1nnc2n1N=C(c1ccc(OC)c(OC)c1)CS2 the AC50 was 3.98 µM [rising, partial curve].
With CC(C)CCn1c(Sc2nc3ccccc3s2)nc2c1c(=O)[nH]c(=O)n2C the AC50 was 10 µM [rising, partial curve].
With Cc1ccc(S(=O)(=O)NC(CC(=O)O)c2ccccc2)cc1 (stereo not drawn) the AC50 was 1 µM [rising, full curve].
With COc1ccc(Cc2n[nH]c(=O)c3ccccc23)cc1OC the AC50 was 12.6 µM [rising, partial curve].
In the case of CCc1nc(-c2ccc(-c3ccc(OC)cc3)nc2OC)no1, the AC50 is reported as 12.6 µM [rising, partial curve].
With N#Cc1c(N)nc(SCC(=O)OCc2ccccc2)c(C#N)c1-c1ccco1 the AC50 was 20 µM [rising, single point].
In the case of O=C1c2ccccc2C(Nc2ccc(F)c(Cl)c2)N1Cc1ccco1 (stereo not drawn), the AC50 is reported as 12.6 µM [falling, single point].
With CCOc1ccc2[nH]c(=O)c(CN(Cc3ccco3)Cc3nnnn3Cc3ccccc3)cc2c1 the AC50 was 25.1 µM [rising, single point].
In the case of CCc1nc(N2CCCC2C(=O)O)c2oc3ccccc3c2n1 (stereo not drawn), the AC50 is reported as 5.01 µM [falling, partial curve, poor fit].
With COc1ccc(Nc2nc(N3CCCCC3)nc(N3CCCCC3)n2)c(OC)c1 the AC50 was 0.398 µM [rising, partial curve].
For CCN(CC)c1nc(C#N)cc(-c2ccc(OC)cc2)n1, the AC50 was 10 µM [rising, partial curve].
For CCOC(=O)N1CCN(C(=O)CSc2nc3ccccc3c(=O)n2-c2ccccc2)CC1, the AC50 was 10 µM [rising, single point].
In the case of O=c1c2ccccc2nnn1CSc1nnc(-c2ccc3c(c2)OCO3)o1, the AC50 is reported as 5.01 µM [rising, single point].
For O=c1cnc2cnc(N3CCOCC3)nc2n1Cc1ccc(F)cc1, the AC50 was 12.6 µM [rising, partial curve].
For C=CCOc1ccc(/C(O)=C2/C(=O)C(=O)N(CCCn3ccnc3)C2c2cccs2)cc1 (stereo not drawn), the AC50 was 1 µM [falling, partial curve, poor fit].
With Cc1nc(SCC(=O)NCC2CCCO2)c2oc3ccccc3c2n1 (stereo not drawn) the AC50 was 12.6 µM [rising, partial curve].
In the case of Cc1ccc(S(=O)(=O)N[C@H](CO)C(=O)O)cc1, the AC50 is reported as 0.398 µM [rising, single point].
In the case of CN(C)c1ccc(-c2cc(Nc3ccc(F)cc3)ncn2)cc1, the AC50 is reported as 10 µM [rising, partial curve].
In the case of Cc1cccn2c(=O)c3cc(C#N)c(=NC(=O)c4cccnc4)n(CC4CCCO4)c3nc12 (stereo not drawn), the AC50 is reported as 12.6 µM [rising, partial curve].
In the case of Cn1c(=O)c(-c2ccc(F)c(F)c2)nc2cncnc21, the AC50 is reported as 12.6 µM [rising, partial curve].
For C[n+]1cc2c3c(ccc2c2ccc4cc5c(cc4c21)OCO5)OCO3, the AC50 was 3.98 µM [rising, full curve] and 7.94 µM [falling, partial curve].
For CC1CCN(C(=O)CSc2nc(N)c3c4c(sc3n2)CN(C)CC4)CC1, the AC50 was 5.01 µM [falling, single point].
With Cc1ccc(S(=O)(=O)C(C#N)c2nc3ccccc3nc2N2CCCC2)cc1C (stereo not drawn) the AC50 was 10 µM [rising, partial curve].
With COc1ccc(C(=O)CSc2nc3nc(C)cc(C)c3c(=O)[nH]2)cc1OC the AC50 was 3.16 µM [rising, full curve].
In the case of COCCNC(=O)CS(=O)Cc1nc(-c2ccc(Cl)cc2)oc1C (stereo not drawn), the AC50 is reported as 12.6 µM [rising, single point].
In the case of C=CCn1c(SCC(=O)Nc2cc3oc4ccccc4c3cc2OC)nnc1-c1cnccn1, the AC50 is reported as 5.01 µM [rising, partial curve].
With CCC(C)NC(=O)c1cn(C)c(=O)c2cc(OC)c(OC)cc12 (stereo not drawn) the AC50 was 3.98 µM [rising, partial curve].
In the case of O=C(Nc1ccn(Cc2ccc(Cl)cc2)n1)c1ccc2c(c1)OCO2, the AC50 is reported as 0.00316 µM [falling, full curve, poor fit].
In the case of Nc1ccc(-c2n[nH]c(=O)c3ccccc23)cc1N, the AC50 is reported as 1.58 µM [rising, full curve].
